Data reported in paper PMC3520743, “Bacillus cereus Fnr binds a [4Fe-4S] cluster and forms a ternary complex with ResD and PlcR” (BMC Microbiology, 2012).
Construct, isoform or probe ends are uncertain for at least one entry.

Target: holoFnr (Bacillus cereus F4430/73) (UniProt A4GFD9)
Assay: EMSA
Details: anoxic, [4Fe-4S]2+, higher affinity than apoFnr; anaerobic EMSA: 10 mM Tris-HCl pH 7.5, 50 mM KCl, 1 mM DTT, 2.5% glycerol, 5 mM MgCl2, 5 mg/L poly(dI-dC), 2 nM DNA, 0.2-0.8 uM Fnr, 30 min at 37 C; recombinant protein; residues 5-230; label: 5'-biotin; probe letters rebuilt from the primers and the genome

“CGAACACTTCAGCAGGCATACAGTATGTACACCTAAAATTACAACGATCAATAACTGAAATACGTAAATCTTGAAGTGGCCGCTTTAAAGAATCTTTTATGTTCTTGTGCATCTCTATCCCTTCTTTTCTGCTGCAATCCTTAGTAAGCTTTCATTTTTTTATTTGCCTTTATTATAAAAAAGAAGCTACATATTCAATGTGACTTTTCTCACATCACTTTCCCCATTCAAAAACTTTTCACAAATCCGTTCGTATTTTGTTCACATCTTCAGGCCATACTCTTTACGGTCATTGAAATTTTACATTATTTTTAAAATAGCTCTTGCATTTTCATCATATTTACACTCAAAATAGGAAATGTATTGCTTATAAGAAGAAAGGTGATTGCTGTGGCAAACAGTATGACATT (double strand) [fnr promoter region]”: binds.
